{"source": "PubChem BioAssay AID296", "about": "(DTP/NCI, 2004)", "system": "MX-1 breast xenograft, nude mice, tumor weight T/C", "assay": "NCI In Vivo Anticancer Drug Screen. Data for tumor model Human Mammary Carcinoma MX-1 Xenograft (intrarenal inoculation) in NU/NU Swiss (nude) mice", "settings": "T/C endpoint: mean tumor weight change, higher T/C = larger tumour; for T/C: evaluated on day 11", "outline": "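Antitumour effect measured in vivo against vehicle controls, expressed as T/C.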", "key": {"[1]": {"settings": "dose: 800.0 mg/kg/injection, schedule: Q01DX010 (sc), vehicle: saline"}, "[2]": {"settings": "dose: 1600.0 mg/kg/injection, schedule: Q01DX010 (sc), vehicle: saline"}, "[3]": {"settings": "dose: 1.0 mg/kg/injection, schedule: Q01DX010 (sc), vehicle: water"}, "[4]": {"settings": "dose: 2.0 mg/kg/injection, schedule: Q01DX010 (sc), vehicle: water"}, "[5]": {"settings": "dose: 4.0 mg/kg/injection, schedule: Q01DX010 (sc), vehicle: water"}}, "note": "The list is a part of this screen's results and no random one: it gathers tests that were run many times, whatever their T/C, doses with no T/C, and many T/C values between a quarter and a half above the control. Further doses and runs are listed elsewhere. T/C: endpoint of the treated group in % of that of the vehicle group. Schedules are NCI's codes, taken here to give the interval after Q, in days (D) or hours (H), and the number of doses after X. Some values lie below zero, which means that the treated tumours became smaller. Some T/C values are followed by the survivors on the day toxicity was checked, most often the fifth; where none is given, no animal had died by that day. Some entries were tested several times; the results are listed from low to high. Brackets with × stand for listed records that agree. Some doses have a count of surviving animals in place of a T/C: the source files T/C as zero there, which appears to mark a toxic dose or a test without result, not a measured value. Counts of survivors are from the toxicity check (mostly the fifth day) where no day follows; animals may have died later.", "data": [{"smiles": "CC1=CC2c3cccc4[nH]cc(c34)CC2N(C)C1", "note": "(configuration not stated)", "values": [{"measurement": "survivor count", "setting": "dose: 25.0 mg/kg/injection, schedule: Q04DX003 (sc), vehicle: suspension in saline", "value": "3 of 6 on day 11"}, {"measurement": "survivor count", "setting": "dose: 50.0 mg/kg/injection, schedule: Q04DX003 (sc), vehicle: suspension in saline", "value": "0 of 6 on day 11"}, {"measurement": "survivor count", "setting": "dose: 100.0 mg/kg/injection, schedule: Q04DX003 (sc), vehicle: suspension in saline", "value": "0 of 6 on day 11"}]}, {"smiles": "COc1cc(Cc2nccc3cc(OC)c(OC)cc23)c(C(C)=O)c(OC)c1", "values": [{"measurement": "survivor count", "setting": "dose: 320.0 mg/kg/injection, schedule: Q01DX010 (sc), vehicle: saline", "value": "0 of 3 on day 11"}]}, {"smiles": "NCC1CCC(C(=O)O)CC1", "note": "(configuration not stated)", "values": [{"measurement": "T/C", "setting": "dose: 300.0 mg/kg/injection, schedule: Q04DX003 (sc), vehicle: saline with Tween-80", "value": "148 % of control"}]}, {"smiles": "C=CS(C=C)=NS(=O)(=O)c1ccc(C)cc1", "values": [{"measurement": "survivor count", "setting": "dose: 75.0 mg/kg/injection, schedule: Q04DX003 (sc), vehicle: Klucel (hydroxypropylcellulose) (HPC)", "value": "0 of 6 on day 11"}, {"measurement": "survivor count", "setting": "dose: 150.0 mg/kg/injection, schedule: Q04DX003 (sc), vehicle: Klucel (hydroxypropylcellulose) (HPC)", "value": "0 of 6 on day 11"}]}, {"smiles": "O=c1cnn(C2OC(CO)C(O)C2O)c(=O)[nH]1", "note": "(configuration not stated)", "values": [{"measurement": "survivor count", "setting": "[1]", "value": "1 of 3 on day 11"}, {"measurement": "survivor count", "setting": "[2]", "value": "0 of 3 on day 11"}]}, {"smiles": "Nc1ncnc2c1ccn2C1OC(CO)C(O)C1O", "note": "(configuration not stated)", "values": [{"measurement": "survivor count", "setting": "dose: 8.0 mg/kg/injection, schedule: Q01DX010 (sc), vehicle: Klucel (hydroxypropylcellulose) (HPC)", "value": "0 of 3 on day 11"}]}, {"smiles": "CN(C)C=O", "values": [{"measurement": "T/C", "setting": "[1]", "value": "15, 21, 27 % of control"}, {"measurement": "T/C", "setting": "[2]", "value": "-80, 3, 25 [2 of 2 alive on day 11], 34 % of control [2 of 2 alive on day 11]"}, {"measurement": "survivor count", "setting": "dose: 6400.0 mg/kg/injection, schedule: Q01DX010 (sc), vehicle: saline", "value": "0 of 3 on day 11"}, {"measurement": "survivor count", "setting": "dose: 6400.0 mg/kg/injection, schedule: Q01DX010 (sc), vehicle: suspension in saline", "value": "0 of 3 on day 11"}]}, {"smiles": "CC(=O)/C(=C\\c1ccc(Cl)c(Cl)c1)C(=O)CCN(C)C", "values": [{"measurement": "T/C", "setting": "dose: 12.5 mg/kg/injection, schedule: Q04DX003 (ip), vehicle: saline", "value": "138 % of control"}, {"measurement": "survivor count", "setting": "dose: 150.0 mg/kg/injection, schedule: Q04DX003 (ip), vehicle: suspension in saline", "value": "0 of 6 on day 11"}, {"measurement": "survivor count", "setting": "dose: 300.0 mg/kg/injection, schedule: Q04DX003 (ip), vehicle: suspension in saline", "value": "0 of 6 on day 11"}, {"measurement": "survivor count", "setting": "dose: 600.0 mg/kg/injection, schedule: Q04DX003 (ip), vehicle: suspension in saline", "value": "0 of 6 on day 11"}, {"measurement": "survivor count", "setting": "dose: 1200.0 mg/kg/injection, schedule: Q04DX003 (ip), vehicle: suspension in saline", "value": "0 of 6 on day 11"}]}, {"smiles": "CCN(CC)CCOC(=O)Cc1cccc2c(=O)cc(-c3ccccc3)oc12", "values": [{"measurement": "T/C", "setting": "dose: 50.0 mg/kg/injection, schedule: Q04DX003 (sc), vehicle: saline with Tween-80", "value": "148 % of control"}, {"measurement": "survivor count", "setting": "dose: 400.0 mg/kg/injection, schedule: Q04DX003 (sc), vehicle: saline with Tween-80", "value": "2 of 6 on day 11"}]}, {"smiles": "O=[N+]([O-])c1ccc(N(CCO)CCO)c2c1no[n+]2[O-]", "values": [{"measurement": "survivor count", "setting": "dose: 100.0 mg/kg/injection, schedule: Q04DX003 (ip), vehicle: saline with Tween-80", "value": "3 of 6 on day 11"}]}, {"smiles": "CC(C)CC(NC(=O)CF)C(=O)O", "note": "(configuration not stated)", "values": [{"measurement": "T/C", "setting": "dose: 5.0 mg/kg/injection, schedule: Q04DX003 (sc), vehicle: saline", "value": "144 % of control"}, {"measurement": "survivor count", "setting": "dose: 40.0 mg/kg/injection, schedule: Q04DX003 (sc), vehicle: saline", "value": "2 of 6 on day 11"}]}, {"smiles": "Cc1c(N)nc(C(CC(N)=O)NCC(N)C(N)=O)nc1C(=O)NC(C(=O)NC(C)C(O)CC(=O)NC(C(=O)NC(OC1OC(C)C(N)C(O)C1O)C(O)c1nc(-c2nc(C(=O)NCCCC(N)CC(=O)NCCCNCCCCN)cs2)cs1)C(C)O)C(OC1OC(CO)C(O)C(O)C1OC1OC(CO)C(O)C(OC(N)=O)C1O)c1cnc[nH]1", "note": "(configuration not stated)", "values": [{"measurement": "survivor count", "setting": "dose: 32.0 mg/kg/injection, schedule: Q04DX003 (sc), vehicle: saline", "value": "0 of 3 on day 11"}, {"measurement": "survivor count", "setting": "dose: 64.0 mg/kg/injection, schedule: Q04DX003 (sc), vehicle: saline", "value": "0 of 3 on day 11"}]}, {"smiles": "CCN(CC)c1ccc2[nH]c3c(C(N)=O)cc(=O)c(=O)c=3oc2c1", "values": [{"measurement": "T/C", "setting": "dose: 600.0 mg/kg/injection, schedule: Q04DX003 (sc), vehicle: saline with Tween-80", "value": "127 % of control"}]}, {"smiles": "COc1cc2cc(c1Cl)N(C)C(=O)CC(OC(=O)C(C)C)C1(C)OC1C(C)C1CC(O)(NC(=O)O1)C(OC)/C=C/C=C(C)C2", "note": "(configuration not stated)", "values": [{"measurement": "survivor count", "setting": "dose: 25.0 micrograms/kg/injection, schedule: Q01DX010 (sc), vehicle: saline + alcohol", "value": "0 of 2 on day 11"}, {"measurement": "survivor count", "setting": "dose: 50.0 micrograms/kg/injection, schedule: Q01DX010 (sc), vehicle: saline + alcohol", "value": "1 of 3 on day 11"}, {"measurement": "survivor count", "setting": "dose: 100.0 micrograms/kg/injection, schedule: Q01DX010 (sc), vehicle: saline + alcohol", "value": "1 of 3 on day 11"}, {"measurement": "survivor count", "setting": "dose: 200.0 micrograms/kg/injection, schedule: Q01DX010 (sc), vehicle: saline + alcohol", "value": "0 of 3 on day 11"}]}, {"smiles": "O=Cc1ccc(C(Cl)(Cl)Cl)cc1", "values": [{"measurement": "T/C", "setting": "dose: 200.0 mg/kg/injection, schedule: Q01DX010 (sc), vehicle: saline with Tween-80", "value": "128 % of control [2 of 2 alive on day 11]"}]}, {"smiles": "COc1cccc2c1C(=O)c1c(O)c3c(c(O)c1C2=O)C[C@@](O)(C(=O)CO)C[C@@H]3OC1CC(N)C(OC)C(C)O1", "note": "(some centres not stated)", "values": [{"measurement": "survivor count", "setting": "dose: 3.0 mg/kg/injection, schedule: Q01DX010 (sc), vehicle: saline", "value": "0 of 3 on day 11"}, {"measurement": "survivor count", "setting": "dose: 6.0 mg/kg/injection, schedule: Q01DX010 (sc), vehicle: saline", "value": "0 of 3 on day 11"}, {"measurement": "survivor count", "setting": "dose: 12.0 mg/kg/injection, schedule: Q01DX010 (sc), vehicle: saline", "value": "0 of 3 on day 11"}]}, {"smiles": "NS(=O)(=O)OCCCCCCCOS(N)(=O)=O", "values": [{"measurement": "survivor count", "setting": "dose: 300.0 mg/kg/injection, schedule: Q04DX003 (ip), vehicle: saline with Tween-80", "value": "2 of 6 on day 11"}, {"measurement": "survivor count", "setting": "dose: 600.0 mg/kg/injection, schedule: Q04DX003 (ip), vehicle: saline with Tween-80", "value": "0 of 5 on day 11"}, {"measurement": "survivor count", "setting": "dose: 1200.0 mg/kg/injection, schedule: Q04DX003 (ip), vehicle: saline with Tween-80", "value": "0 of 6 on day 11"}]}, {"smiles": "CCOC(C)C(/C=N/NC(N)=S)=NNC(N)=S", "note": "(configuration not stated)", "values": [{"measurement": "T/C", "setting": "dose: 400.0 mg/kg/injection, schedule: Q01DX010 (sc), vehicle: saline with Tween-80", "value": "141 % of control"}]}, {"smiles": "C/C=C(\\C)C(=O)OC1C(C)=C2C(C1OC(=O)CCCCC)C(C)(OC(C)=O)CC(OC(=O)CCC)C1(O)C2OC(=O)C1(C)O", "note": "(configuration not stated)", "values": [{"measurement": "survivor count", "setting": "dose: 4.0 mg/kg/injection, schedule: Q04DX003 (ip), vehicle: Klucel (hydroxypropylcellulose) (HPC)", "value": "0 of 6 on day 11"}, {"measurement": "survivor count", "setting": "dose: 8.0 mg/kg/injection, schedule: Q04DX003 (ip), vehicle: Klucel (hydroxypropylcellulose) (HPC)", "value": "0 of 6 on day 11"}, {"measurement": "survivor count", "setting": "dose: 16.0 mg/kg/injection, schedule: Q04DX003 (ip), vehicle: Klucel (hydroxypropylcellulose) (HPC)", "value": "0 of 6 on day 11"}]}, {"smiles": "COc1cccc2c1C(=O)c1c(O)c3c(c(O)c1C2=O)C[C@@](O)(C(=O)CO)C[C@@H]3OC1CC(N)C(O)C(C)O1", "note": "(some centres not stated)", "values": [{"measurement": "T/C", "setting": "dose: 0.5 mg/kg/injection, schedule: Q01DX010 (sc), vehicle: water", "value": "3, 20 [2 of 2 alive on day 11], 37, 58 [2 of 3 alive on day 11], 97, 103, 106 [2 of 3 alive on day 11], 133, 165, 204 % of control [2 of 3 alive on day 11]"}, {"measurement": "T/C", "setting": "[3]", "value": "-52, 31, 47, 61, 70 [2 of 3 alive on day 11], 88, 89, 98 [2 of 3 alive on day 11], 114, 166, 228 % of control"}, {"measurement": "survivor count", "setting": "[3]", "value": "1 of 2 on day 11"}, {"measurement": "survivor count", "setting": "dose: 2.0 mg/kg/injection, schedule: Q01DX010 (ip), vehicle: water", "value": "0 of 3 on day 11"}, {"measurement": "T/C", "setting": "[4]", "value": "-62, -21 [2 of 3 alive on day 11], 9, 10 [2 of 3 alive on day 11], 18, 24, 25, 26, 44, 50 [2 of 2 alive on day 11], 55, 56, 74, 82, 96, 112, 171 % of control"}, {"measurement": "survivor count", "setting": "[4]", "value": "0 of 3 on day 11"}, {"measurement": "survivor count", "setting": "dose: 4.0 mg/kg/injection, schedule: Q01DX010 (ip), vehicle: water", "value": "0 of 3 on day 11"}, {"measurement": "T/C", "setting": "[5]", "value": "-62 [2 of 3 alive on day 11], -39, -31, 1, 2 [2 of 3 alive on day 11], 3, 5 [2 of 2 alive on day 11], 6 (2×), 13, 17 [2 of 3 alive on day 11], 26, 30, 56, 144 % of control"}, {"measurement": "survivor count", "setting": "[5]", "value": "0 of 2 on day 11 and 1 of 3 on day 11"}, {"measurement": "survivor count", "setting": "dose: 12.0 mg/kg/injection, schedule: Q01DX010 (sc), vehicle: water", "value": "1 of 3 on day 11"}]}]}
